Source: PubChem BioAssay AID1508588 (Peter MacCallum Cancer Centre, 2020)
Purpose: 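Genome-wide search for knock-downs that heighten vemurafenib action in melanoma cells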 (primary screen). Cells: human WM266.4 melanoma cells (BRAF V600 mutant). Reagents: siRNA pool against human genes, 40 nM. Duration: 96 h from transfection to read-out. Conditions: vemurafenib 300 nM (about IC25), added 48 h after transfection, for 48 h; comparison arm got DMSO vehicle only. Measured: 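Cell gain (DAPI nuclei at end minus before drug, mean of two replicates) and medium lactate by absorbance per cell, both as ratio to non-targeting siRNA, also grouped into fold-change classes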. Reading the numbers: cell gain with vemurafenib: higher = more cell gain than with non-targeting siRNA; lactate per cell with vemurafenib: higher = more lactate made per cell. Active means: 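Enhancement is called by pairing each knock-down's vehicle-arm and drug-arm fold-change classes for viability or glycolysis; which class combinations qualify is not given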. Calls: active = enhances vemurafenib effect; inactive = no enhancement seen.
The deposit covers about 18,000 reagents; below is an unselected part. 790 of all reagents (4.4%) were called active. 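Calls rest on a combination of fold-change classes in drug and vehicle arms, not all shown here.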 A reagent listed more than once was tested more than once; the source does not tell the runs apart.

ZNF511 (zinc finger protein 511)
- cell gain with vemurafenib: 0.52
- lactate per cell with vemurafenib: 0.49
- call: active

MRPL30 (mitochondrial ribosomal protein L30)
- cell gain with vemurafenib: 0.7
- lactate per cell with vemurafenib: 1.12
- call: inactive

SNPH (syntaphilin)
- cell gain with vemurafenib: 0.41
- lactate per cell with vemurafenib: 0.74
- call: inactive

TP53I3 (tumor protein p53 inducible protein 3)
- cell gain with vemurafenib: 0.11
- lactate per cell with vemurafenib: 2.07
- call: inactive

KLHL7 (kelch like family member 7)
- cell gain with vemurafenib: 0.98
- lactate per cell with vemurafenib: 0.28
- call: inactive

KRTAP13-1 (keratin associated protein 13-1)
- cell gain with vemurafenib: 0.75
- lactate per cell with vemurafenib: 0.9
- call: inactive

ZNRF4 (zinc and ring finger 4)
- cell gain with vemurafenib: 1.01
- lactate per cell with vemurafenib: 0.75
- call: inactive

ZNRF4 (zinc and ring finger 4)
- cell gain with vemurafenib: 0.63
- lactate per cell with vemurafenib: 1.44
- call: inactive

TECPR2 (tectonin beta-propeller repeat containing 2)
- cell gain with vemurafenib: 0.31
- lactate per cell with vemurafenib: 0.92
- call: inactive

DRC5 (dynein regulatory complex subunit 5)
- cell gain with vemurafenib: 0.2
- lactate per cell with vemurafenib: 0.79
- call: inactive

CHCHD1 (coiled-coil-helix-coiled-coil-helix domain containing 1)
- cell gain with vemurafenib: 0.7
- lactate per cell with vemurafenib: 1.32
- call: inactive

ARHGAP31 (Rho GTPase activating protein 31)
- cell gain with vemurafenib: 0.68
- lactate per cell with vemurafenib: 1.31
- call: inactive

PNPLA3
- cell gain with vemurafenib: 0.73
- lactate per cell with vemurafenib: 0.38
- call: inactive

NEK1 (NIMA related kinase 1)
- cell gain with vemurafenib: 0.32
- lactate per cell with vemurafenib: 2.38
- call: inactive

PRDM16 (PR/SET domain 16)
- cell gain with vemurafenib: 0.65
- lactate per cell with vemurafenib: 1.02
- call: inactive

FKBP15 (FKBP prolyl isomerase family member 15)
- cell gain with vemurafenib: 0.37
- lactate per cell with vemurafenib: 1.7
- call: inactive

ERBB2 (erb-b2 receptor tyrosine kinase 2)
- cell gain with vemurafenib: 1.06
- lactate per cell with vemurafenib: 0.88
- call: inactive

MAGED1 (MAGE family member D1)
- cell gain with vemurafenib: 0.42
- lactate per cell with vemurafenib: 1.14
- call: inactive

BTC (betacellulin)
- cell gain with vemurafenib: 0.4
- lactate per cell with vemurafenib: 1
- call: inactive

PRKAG1 (protein kinase AMP-activated non-catalytic subunit gamma 1)
- cell gain with vemurafenib: 0.6
- lactate per cell with vemurafenib: 1.03
- call: inactive

CA5A (carbonic anhydrase 5A)
- cell gain with vemurafenib: 0.51
- lactate per cell with vemurafenib: 1.07
- call: inactive

ARSG (arylsulfatase G)
- cell gain with vemurafenib: 0.17
- lactate per cell with vemurafenib: 1
- call: inactive

UQCRFS1
- cell gain with vemurafenib: 1.27
- lactate per cell with vemurafenib: 1.5
- call: inactive

RABGAP1L (RAB GTPase activating protein 1 like)
- cell gain with vemurafenib: 0.17
- lactate per cell with vemurafenib: 0.68
- call: inactive

RORC (RAR related orphan receptor C)
- cell gain with vemurafenib: 0.71
- lactate per cell with vemurafenib: 0.68
- call: active

Records listed so far marked active (2):
ZNF511 (zinc finger protein 511)
- cell gain with vemurafenib: 0.52
- lactate per cell with vemurafenib: 0.49
- call: active

RORC (RAR related orphan receptor C)
- cell gain with vemurafenib: 0.71
- lactate per cell with vemurafenib: 0.68
- call: active

Continued:
SMC1B (structural maintenance of chromosomes 1B)
- cell gain with vemurafenib: 0.88
- lactate per cell with vemurafenib: 0.82
- call: inactive

HACL2 (2-hydroxyacyl-CoA lyase 2)
- cell gain with vemurafenib: 0.22
- lactate per cell with vemurafenib: 0.97
- call: inactive

CENPK (centromere protein K)
- cell gain with vemurafenib: 0.22
- lactate per cell with vemurafenib: 1.6
- call: inactive

FKBP3 (FKBP prolyl isomerase 3)
- cell gain with vemurafenib: 0.44
- lactate per cell with vemurafenib: 0.86
- call: inactive

HYAL3 (hyaluronidase 3)
- cell gain with vemurafenib: 0.4
- lactate per cell with vemurafenib: 2.29
- call: inactive

E2F4 (E2F transcription factor 4)
- cell gain with vemurafenib: 1.09
- lactate per cell with vemurafenib: 0.76
- call: inactive

MGAT5B
- cell gain with vemurafenib: 0.47
- lactate per cell with vemurafenib: 0.91
- call: inactive

UFM1 (ubiquitin fold modifier 1)
- cell gain with vemurafenib: 0.82
- lactate per cell with vemurafenib: 0.75
- call: inactive

TRPM1
- cell gain with vemurafenib: 0.81
- lactate per cell with vemurafenib: 1.38
- call: inactive

ABHD6 (abhydrolase domain containing 6, acylglycerol lipase)
- cell gain with vemurafenib: 0.89
- lactate per cell with vemurafenib: 0.68
- call: inactive

SMARCA5 (SNF2 related chromatin remodeling ATPase 5)
- cell gain with vemurafenib: 0.4
- lactate per cell with vemurafenib: 0.8
- call: inactive

ZNF562 (zinc finger protein 562)
- cell gain with vemurafenib: 0.45
- lactate per cell with vemurafenib: 1.98
- call: inactive

CEP135 (centrosomal protein 135)
- cell gain with vemurafenib: 0.41
- lactate per cell with vemurafenib: 0.92
- call: inactive

GABARAP (GABA type A receptor-associated protein)
- cell gain with vemurafenib: 0.75
- lactate per cell with vemurafenib: 0.64
- call: inactive

OR2H2 (olfactory receptor family 2 subfamily H member 2)
- cell gain with vemurafenib: 0.95
- lactate per cell with vemurafenib: 1.03
- call: inactive

KDM3B (lysine demethylase 3B)
- cell gain with vemurafenib: 0.2
- lactate per cell with vemurafenib: 1.44
- call: inactive

AKR1C8 (aldo-keto reductase family 1 member C8)
- cell gain with vemurafenib: 0.42
- lactate per cell with vemurafenib: 2.5
- call: inactive

STT3B (STT3 oligosaccharyltransferase complex catalytic subunit B)
- cell gain with vemurafenib: 0.31
- lactate per cell with vemurafenib: 0.94
- call: inactive

IFNAR2 (interferon alpha and beta receptor subunit 2)
- cell gain with vemurafenib: 0.92
- lactate per cell with vemurafenib: 0.64
- call: inactive

LMAN2 (lectin, mannose binding 2)
- cell gain with vemurafenib: 0.72
- lactate per cell with vemurafenib: 1.44
- call: inactive

VWA7 (von Willebrand factor A domain containing 7)
- cell gain with vemurafenib: 0.23
- lactate per cell with vemurafenib: 2.42
- call: inactive

ZNF341 (zinc finger protein 341)
- cell gain with vemurafenib: 0.73
- lactate per cell with vemurafenib: 1.05
- call: inactive

NOB1 (NIN1 (RPN12) binding protein 1 homolog)
- cell gain with vemurafenib: 1.01
- lactate per cell with vemurafenib: 0.71
- call: inactive

OR2A42 (olfactory receptor family 2 subfamily A member 42)
- cell gain with vemurafenib: 0.25
- lactate per cell with vemurafenib: 1.4
- call: inactive

UTY
- cell gain with vemurafenib: 0.62
- lactate per cell with vemurafenib: -0.02
- call: inactive

GTPBP2 (GTP binding protein 2)
- cell gain with vemurafenib: 0.65
- lactate per cell with vemurafenib: 0.64
- call: inactive

FOXD1 (forkhead box D1)
- cell gain with vemurafenib: 0.18
- lactate per cell with vemurafenib: 0.52
- call: inactive
